The whole screen tested about 340,000 compounds, of which about 170 (0.05%) were called active. The inconclusive results got no clear call from the source; some entries with a clear call stand among them for comparison. Calls follow the shape of the dose curve; as a rule, active = well fitted inhibition curve with a large enough effect in the signal ratio, with a control signal flat (not every such curve was filed as active); inconclusive = small, poorly fitted or top-dose-only effect, or effect the other way, or a change in a side signal; inactive = flat fitted curve, though single readings scatter; the % refers to the signal ratio. Potencies of inconclusive entries are doubtful fits and often do not repeat.
Assay: qHTS Assay to Find Inhibitors of Chronic Active B-Cell Receptor Signaling;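 as to activity change, negative = inhibition: plate controls were basal doxycycline-induced cells for no effect and cells given 10 µM MG132 for full effect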
Settings: ABC-DLBCL IkBa-CBG/CBR reporter, luminescence ratio (green luciferase fused to IkBa over red control in TMD8 lymphoma cells), 4 h; activity change, negative = inhibition: at 46.1 µM (top of the series)
Procedure, shortened: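 Concentration-response series (up to 46 uM) were applied to TMD8 dual-reporter cells for 4 h at 37C with doxycycline. Green/red ratio, after filter-overlap correction, defined %Activity; red signal alone was normalised to basal cells and zero luminescence.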
Potency is read from the fitted curve at half-maximal effect.

| Structure (SMILES) | Potency | activity change, negative = inhibition |
| --- | --- | --- |
| CC/C(C)=N/NC(=O)c1[nH]c2ccc(C)cc2c1-c1ccccc1 | inconclusive: 3.55 µM [falling, full curve, poor fit] | – |
| CSc1ccc(N2CCN(CCCNC(=O)Nc3ccccc3F)CC2)cc1 | – | inactive: -4.36% |
| CCC(CC)c1nc2ccccc2c(=O)[nH]1 | inconclusive: 20 µM [falling, single point] | – |
| O=C(CSc1nnc(-c2csc3c2CCCC3)o1)Nc1ccccc1 | inconclusive: 18.4 µM [falling, partial curve] | – |
| CCCc1cc(=O)oc2cc(C)cc(OCC(=O)NCCCN3CCOCC3)c12 | – | inactive: -7.14% |
| COc1ccccc1C(=O)n1nc(-c2ccc(Cl)cc2)nc1N | inconclusive: 0.651 µM [falling, full curve, poor fit] | – |
| O=C1NC(=O)/C(=C\c2ccc(OCc3ccccc3)cc2)S1 | – | inconclusive: 2.24% |
| O=C(Nc1ccccc1Cl)C1CCCN(c2ncnc3c2nc2n3CCCCC2)C1 (centres undefined) | – | inactive: -22.1% |
| CC(C)C[C@H](NC(=O)c1nc[nH]c1C(=O)NC(c1ccccc1)c1ccccc1)C(=O)OC(C)(C)C | – | inactive: 17% |
| O=S(Cc1ccc(Br)cc1)Cc1nnc(SCc2ccc(Cl)cc2)n1-c1ccccc1 (centres undefined) | – | inconclusive: -15% |
| CCOc1cc(-c2cc(-c3ccc(C)o3)nc(N)c2C#N)ccc1O | – | inconclusive: -20.8% |
| COC(=O)c1ccc(C(=O)Nc2ccc(F)cc2)cc1 | inconclusive: 0.82 µM [falling, full curve] | – |
| CC(=O)c1c(C)[nH]c(C(=O)OCC(=O)c2c[nH]c3ccccc23)c1C | inconclusive: 18.4 µM [cytotoxic, single point] | – |
| CN(C)CCCN(CCCN(C)C)C(=S)Nc1ccc(S(=O)(=O)N2CCOCC2)cc1 | inconclusive: 22.4 µM [falling, partial curve, poor fit] | – |
| Cn1c(SCC(=O)Nc2nccs2)nnc1-c1ccco1 | – | inconclusive: -10.5% |
| c1ccc(Nc2nc(N3CCOCC3)c3ccccc3n2)cc1 | – | inconclusive: 22.1% |
| NC(=O)c1ccsc1NC(=O)COC(=O)c1cc(=O)[nH]c2ccccc12 | inconclusive: 9.2 µM [falling, partial curve, poor fit] | – |
| COc1ccc(CCNC(=S)Nc2cccc3ccccc23)cc1 | inconclusive: 20.6 µM [falling, single point] | – |
| Cc1ccc(NC(=S)NNC(=O)c2cccc([N+](=O)[O-])c2)cc1Cl | – | inconclusive: 11.3% |
| O=C(CC1CCCCC1)N1CCN(c2ccccn2)CC1 | inconclusive: 29.1 µM [falling, single point] | – |
| O=C(CCC(=O)c1ccc(Cl)s1)Nc1ncccc1O | inconclusive: 13 µM [falling, partial curve] | – |
| O=C(COC(=O)C1(c2ccccc2F)CCCC1)NCc1ccc2c(c1)OCO2 | – | inconclusive: 1.82% |
| C/C(=N/O)c1cccc(N2Cc3ccccc3C2)c1 | – | inconclusive: -11.4% |
| FC(F)(F)c1cccc(-c2ccc(-c3csnn3)o2)c1 | – | inconclusive: 10.7% |
| CC(C)(C)n1nnnc1C(c1cccc(C#N)c1)N1CCN2CCCC2C1 (centres undefined) | – | inactive: 15.7% |
| C1CCCC(NC2=NCCO2)CCC1 | – | inconclusive: -1.52% |
| CC1=NN(c2ccccc2)C(=O)C1C(=O)c1ccc([N+](=O)[O-])cc1 (centres undefined) | – | inconclusive: 5.45% |

| Structure (SMILES) | Potency | activity change, negative = inhibition |
| --- | --- | --- |
| CSc1ccc(CNCCN2CCOCC2)cc1 | – | inconclusive: -0.148% |
| Cc1ccc(S(=O)(=O)N(C)CC(=O)OCC(=O)c2ccc3c(c2)NC(=O)CO3)cc1 | – | inconclusive: -0.143% |
| S=C(NCCc1ccccc1)Nc1ccc(Nc2ccccc2)cc1 | – | inconclusive: 11.9% |
| COc1ccc(-c2noc(CCC(=O)NC3CCN(Cc4ccccc4)CC3)n2)cc1 | – | inconclusive: 13.8% |
| c1ccc(-c2cc(-c3nnc4sc(-c5ccccn5)nn34)[nH]n2)cc1 | – | inconclusive: 6.02% |
| O=C(COc1ccccc1Br)c1ccc(O)cc1O | – | inconclusive: -11% |
| CCCC(=O)N1CCc2cc(OC)c(OC)cc2C1COc1ccccc1OC (centres undefined) | – | inconclusive: -7.22% |
| C=CCn1c(NC(=O)c2ccco2)c(S(=O)(=O)c2ccccc2)c2nc3ccccc3nc21 | – | inconclusive: 6.09% |
| COc1cc(C#Cc2c(-c3cncn3C)n(C)c3ccc(-c4ccc(OC)c(OC)c4)cc23)cc(OC)c1 | inconclusive: 2.06 µM [falling, partial curve, poor fit] | – |
| O=C(Nc1ccc(-c2nc3ccccc3s2)cc1)c1cc(-n2cnnc2)ccc1Cl | – | inconclusive: 28.2% |
| O=C(NCc1ccccn1)C(=O)Nc1ccccc1 | inconclusive: 31.6 µM [rising, partial curve] | – |
| Nc1c(C(=O)CSc2ncccn2)c(=O)[nH]c(=O)n1C1CC1 | – | inconclusive: 4.42% |
| CC(C)CC1NC(=O)N(CC(=O)N2CCN(S(=O)(=O)c3ccc4ccccc4c3)CC2)C1=O (centres undefined) | – | inconclusive: 7.56% |
| O=C(CN1C(=O)/C(=C/c2ccc(C(F)(F)F)cc2)Sc2ccccc21)NCCCN1CCOCC1 | – | inactive: -0.512% |
| COc1ccc2[nH]cc(CCNC(=O)Nc3ccccc3)c2c1 | – | inconclusive: 3.68% |
| C/C(C/C(C)=C1/SC(=S)NC1=O)=C1\SC(=S)NC1=O | inconclusive: 17.8 µM [rising, partial curve, poor fit] | – |
| CCOc1ccccc1CN1CCN(Cc2cccc3nonc23)CC1CCO (centres undefined) | – | inconclusive: 8.68% |
| O=C(N/N=C/c1ccc(N2CCCCC2)o1)c1ccccc1 | inconclusive: 6.51 µM [falling, partial curve, poor fit] | – |
| CC(C)c1ccc(NC(=O)NCc2cccnc2)cc1 | – | inconclusive: -1.3% |
| Nc1ccc(Br)c2cccnc12 | – | inactive: -0.224% |
| COCCn1ccc2c(OCC(=O)NCc3ccccc3)cccc2c1=O | inconclusive: 14.6 µM [falling, partial curve, poor fit] | – |
| O=C(NCCN1CCOCC1)c1cc(-c2ccc(F)cc2)on1 | – | inconclusive: -1.83% |
| COc1cccc(NC(=O)NCCCN2CCN(c3ccc(F)cc3)CC2)c1 | – | inactive: 0.739% |
| COc1ccc(C(O)(c2ccccc2OC)C(CN2CCOCC2)c2ccccc2)cc1 (centres undefined) | – | inconclusive: 5.3% |
| COc1ccc(OC(=O)/C=C/c2ccc([N+](=O)[O-])cc2)cc1 | – | inactive: 0.49% |
| Cc1cccc(C)c1NC(=O)C1CCCN1C(=O)Nc1cccc(F)c1 (centres undefined) | – | inactive: -3.07% |
| CC[C@@H]1CC=C[C@H]2[C@H]1C(=O)N(Cc1ccccc1)[C@H]2c1ccc(OC)c(Cl)c1 | – | inactive: -0.656% |

As a working copy, part of the list above:

| Structure (SMILES) | Potency | activity change, negative = inhibition |
| --- | --- | --- |
| CSc1ccc(CNCCN2CCOCC2)cc1 | – | inconclusive: -0.148% |
| Cc1ccc(S(=O)(=O)N(C)CC(=O)OCC(=O)c2ccc3c(c2)NC(=O)CO3)cc1 | – | inconclusive: -0.143% |
| S=C(NCCc1ccccc1)Nc1ccc(Nc2ccccc2)cc1 | – | inconclusive: 11.9% |
| COc1ccc(-c2noc(CCC(=O)NC3CCN(Cc4ccccc4)CC3)n2)cc1 | – | inconclusive: 13.8% |
| c1ccc(-c2cc(-c3nnc4sc(-c5ccccn5)nn34)[nH]n2)cc1 | – | inconclusive: 6.02% |
| O=C(COc1ccccc1Br)c1ccc(O)cc1O | – | inconclusive: -11% |
| CCCC(=O)N1CCc2cc(OC)c(OC)cc2C1COc1ccccc1OC (centres undefined) | – | inconclusive: -7.22% |
| C=CCn1c(NC(=O)c2ccco2)c(S(=O)(=O)c2ccccc2)c2nc3ccccc3nc21 | – | inconclusive: 6.09% |
| COc1cc(C#Cc2c(-c3cncn3C)n(C)c3ccc(-c4ccc(OC)c(OC)c4)cc23)cc(OC)c1 | inconclusive: 2.06 µM [falling, partial curve, poor fit] | – |
| O=C(Nc1ccc(-c2nc3ccccc3s2)cc1)c1cc(-n2cnnc2)ccc1Cl | – | inconclusive: 28.2% |
| O=C(NCc1ccccn1)C(=O)Nc1ccccc1 | inconclusive: 31.6 µM [rising, partial curve] | – |
| Nc1c(C(=O)CSc2ncccn2)c(=O)[nH]c(=O)n1C1CC1 | – | inconclusive: 4.42% |
| CC(C)CC1NC(=O)N(CC(=O)N2CCN(S(=O)(=O)c3ccc4ccccc4c3)CC2)C1=O (centres undefined) | – | inconclusive: 7.56% |
| O=C(CN1C(=O)/C(=C/c2ccc(C(F)(F)F)cc2)Sc2ccccc21)NCCCN1CCOCC1 | – | inactive: -0.512% |
| COc1ccc2[nH]cc(CCNC(=O)Nc3ccccc3)c2c1 | – | inconclusive: 3.68% |
| C/C(C/C(C)=C1/SC(=S)NC1=O)=C1\SC(=S)NC1=O | inconclusive: 17.8 µM [rising, partial curve, poor fit] | – |
| CCOc1ccccc1CN1CCN(Cc2cccc3nonc23)CC1CCO (centres undefined) | – | inconclusive: 8.68% |
| O=C(N/N=C/c1ccc(N2CCCCC2)o1)c1ccccc1 | inconclusive: 6.51 µM [falling, partial curve, poor fit] | – |
| CC(C)c1ccc(NC(=O)NCc2cccnc2)cc1 | – | inconclusive: -1.3% |
| Nc1ccc(Br)c2cccnc12 | – | inactive: -0.224% |
| COCCn1ccc2c(OCC(=O)NCc3ccccc3)cccc2c1=O | inconclusive: 14.6 µM [falling, partial curve, poor fit] | – |
| O=C(NCCN1CCOCC1)c1cc(-c2ccc(F)cc2)on1 | – | inconclusive: -1.83% |
| COc1cccc(NC(=O)NCCCN2CCN(c3ccc(F)cc3)CC2)c1 | – | inactive: 0.739% |

(continued)

| Structure (SMILES) | Potency | activity change, negative = inhibition |
| --- | --- | --- |
| C=CCn1c(SCC(=O)N2CCN(C(=O)c3ccco3)CC2)nc2sc(CC)cc2c1=O | – | inactive: 9.21% |
| CCn1c(SCc2nc3ccccc3c(=O)[nH]2)nc2ccccc2c1=O | – | inconclusive: 12.5% |
| CSc1nc(N)nc2c1ncn2CC(=O)N[C@H](C)c1cccc2ccccc12 | – | inconclusive: -12.1% |
| O=C(CSc1nc(Nc2ccccc2)nc(N2CCOCC2)n1)Nc1ccc([N+](=O)[O-])cc1 | – | inconclusive: -1.9% |
| COc1ccc(S(=O)(=O)N(C(=O)C(C)C)c2ccc3oc(=O)sc3c2)cc1 | inconclusive: 23.1 µM [rising, single point] | – |
| O=C(c1cccc(F)c1)N1CCN(Cc2c[nH]c3ccccc23)CC1 | – | inconclusive: -5.89% |
| COc1cc(/C=N/N(c2ccccc2)c2ccccc2)ccc1O | – | inconclusive: 2.85% |
| O=C1CCC(C(=O)N2CCN(c3ccc(F)cc3)CC2)CN1CC1CCCCC1 (centres undefined) | – | inconclusive: -9.53% |
| COc1ccc(C(=O)NCCc2nnc3ccc(SCC(=O)Nc4ccccc4)nn23)cc1 | – | inconclusive: -0.373% |
| CC(C)(C)c1ccc(S(=O)(=O)NCC(=O)Nc2sc3c(c2C(N)=O)CCCC3)cc1 | – | inconclusive: -11.1% |
| CSc1n[nH]c(-c2ccc(C(F)(F)F)cc2)n1 | – | inconclusive: 10.5% |
| COC(=O)CCS(=O)(=O)c1nc(-c2ccccc2)cc(C(F)(F)F)n1 | inconclusive: 23.1 µM [rising, partial curve, poor fit] | – |
| C/C(=N\NC(=O)c1cccc2ccccc12)c1ccccn1 | inconclusive: 22.4 µM [falling, single point] | – |
| CCOC(=O)N1CCN(S(=O)(=O)c2ccc(F)c(C(=O)Nc3ccc(C(C)C)cc3)c2)CC1 | – | inconclusive: 2.24% |
| O=C(c1ccc(-c2nc3ccccc3s2)s1)N1CCOCC1 | inconclusive: 12.6 µM [falling, partial curve, poor fit] | – |
| N/C(Cc1cccc2ccccc12)=N\OC(=O)c1ccc(Br)o1 | inconclusive: 22.4 µM [rising, partial curve, poor fit] | – |
| COc1cccc(OC)c1OCC(O)CN1CCN(c2ccc(F)cc2)CC1 (centres undefined) | – | inactive: 7.52% |
| CCOC(=O)CSc1nc(C)cc2c1C(=O)OC2 | – | inconclusive: -10.9% |
| COc1cc(C(=O)NC(C)C2CC3CCC2C3)ccc1OC(F)F (centres undefined) | – | inconclusive: 7.05% |
| O=C(Cn1nc(CNc2ccc(Br)cc2)[n+]2c1CCCCC2)c1ccc([N+](=O)[O-])cc1 | – | inconclusive: 4.47% |
| CCN(CC)c1ccc(C=NCCNS(=O)(=O)c2ccc(C)cc2)cc1 | – | inconclusive: -18% |
| COC(=O)c1ccc(NS(=O)(=O)c2ccc3[nH]c(=O)oc3c2)cc1 | – | inactive: -22% |
| Cn1ccc(C(=O)NC(=S)N2CCSCC2)n1 | – | inconclusive: 15.9% |
| CCN(CC)Cc1ccccc1CNC(=O)c1cccc(S(=O)(=O)Nc2ccc3c(c2)OCO3)c1 | – | inconclusive: -0.215% |
| COc1ccc(/C=N/Nc2nncc3ccccc23)cc1 | inconclusive: 25.9 µM [falling, single point] | – |

From PubChem BioAssay AID493014 (National Center for Advancing Translational Sciences (NCATS), 2011)
